# Measured values: PubChem BioAssay AID493014 (National Center for Advancing Translational Sciences (NCATS), 2011)
# The list shows a part of the results. The main result of the screen is listed elsewhere. These columns were measured beside it and carry no call. Compounds called inactive in the main read-out are mostly missing here. Words in brackets tell the shape of the fitted curve; partial curves, single points and poor fits give uncertain potencies.
# Experiment: qHTS Assay to Find Inhibitors of Chronic Active B-Cell Receptor Signaling
# Conditions: ABC-DLBCL IkBa-CBG/CBR reporter, luminescence ratio (green luciferase fused to IkBa over red control in TMD8 lymphoma cells), 4 h
# How it was run: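 Cell line TMD8 (human ABC DLBCL), stably expressing tet-inducible CBG68-IkBa fusion and CBR; IMDM/0.5% FBS; cpd up to 46 uM; dox induction, 4 h, 37C/5% CO2; dual luminescence; green/red ratio; MG132 control.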
# [1] = measured here: CBR red luminescence, cell number
# [2] = measured here: IkBa-CBG green luminescence
SMILES,AC50 [1],AC50 [2]
Cc1cc2c(ncn2C)c(NS(=O)(=O)c2ccc(Cl)cc2)c1C,"10 µM [rising, partial curve, poor fit]",–
O=C(c1cc2ncccn2n1)N1CCc2c([nH]c3ccccc23)C1c1ccccc1F (stereo not given),"35.5 µM [rising, single point]",–
COc1ccc(C(=O)NCC(=O)OCC(=O)Nc2ccc(C)c(S(=O)(=O)N(C)C)c2)cc1OC,–,"10 µM [falling, partial curve, poor fit]"
COc1cc(OC)c2c(-c3cccc(-c4ccc(OC)c(F)c4)c3)cc(=O)oc2c1,"2.59 µM [rising, partial curve]","2.06 µM [falling, partial curve]"
NS(=O)(=O)c1ccc(N/N=C/c2ccc[nH]2)c([N+](=O)[O-])c1,"12.6 µM [rising, partial curve, poor fit]",–
CCN(CC)S(=O)(=O)c1cc(C)ccc1NC(=S)Nc1cccnc1,"35.5 µM [falling, single point]",–
COc1ccc(-n2c(C)cc(C(=O)Cn3nc(C(=O)O)c4ccccc4c3=O)c2C)cc1,"29.1 µM [falling, single point]",–
CCCc1nc(N2CCOCC2)c2sc(=S)n(-c3ccccc3)c2n1,"0.00461 µM [falling, full curve, poor fit]",–
CCn1c(SCC(=O)Nc2cccc(C)c2)nc2nc3c(cc2c1=O)COC(C)(C)C3,"14.1 µM [falling, single point]",–
Cc1cc(C)cc(C(=O)Nc2cc3c4c(c2)CC(=O)N4CCC3)c1,"0.00731 µM [rising, full curve, poor fit]",–
c1ccc(-c2noc(C34CC5CC(CC(C5)C3)C4)n2)cc1,"0.0517 µM [rising, full curve, poor fit]",–
COc1ccc(OC)c(COC(=O)c2cc([N+](=O)[O-])ccc2N2CCOCC2)c1,"3.66 µM [rising, full curve, poor fit]",–
COc1cccc2cc(-c3nnc(Nc4c(F)cccc4F)s3)c(=O)oc12,"1.41 µM [falling, full curve, poor fit]",–
O=C(Cn1cc([N+](=O)[O-])cn1)Nc1ccn(Cc2c(F)c(F)c(F)c(F)c2F)n1,"0.184 µM [falling, full curve, poor fit]",–
COc1ccc(C(=O)Nn2c(SCC(=O)c3ccccc3)nc3ccccc3c2=O)cc1,"7.94 µM [falling, partial curve]",–
O=C(c1ccco1)n1nc(-c2ccccc2)nc1SCc1ccccc1,"0.146 µM [rising, full curve, poor fit]",–
Cc1nc2ncnn2c(N2CCC(C(=O)NC3CCCC3)CC2)c1Cc1ccccc1,"2.59 µM [falling, partial curve, poor fit]",–
CC1CCN(c2nc(-c3ccco3)c3c(c2C#N)CC(C)(C)OC3)CC1,–,"5.8 µM [rising, full curve, poor fit]"
Cc1ccc(Cl)cc1-n1ncc2c(N3CCCCCC3)ncnc21,"35.5 µM [falling, single point]",–
O=C(Nc1ccc(Cl)cc1C(F)(F)F)c1ccc(Cl)cc1,"2.51 µM [rising, partial curve, poor fit]",–
Cc1ccc(-c2nc(CS(=O)CC(=O)N3CCN(c4ncccn4)CC3)c(C)o2)cc1 (stereo not given),"6.31 µM [rising, full curve, poor fit]",–

# An excerpt of these results, bar-delimited.
SMILES | AC50 [1] | AC50 [2]
COc1ccc(C(=O)NCC(=O)OCC(=O)Nc2ccc(C)c(S(=O)(=O)N(C)C)c2)cc1OC | – | 10 µM [falling, partial curve, poor fit]
COc1cc(OC)c2c(-c3cccc(-c4ccc(OC)c(F)c4)c3)cc(=O)oc2c1 | 2.59 µM [rising, partial curve] | 2.06 µM [falling, partial curve]
NS(=O)(=O)c1ccc(N/N=C/c2ccc[nH]2)c([N+](=O)[O-])c1 | 12.6 µM [rising, partial curve, poor fit] | –

# Next part:

SMILES,AC50 [1],AC50 [2]
Cc1ccccc1C(=O)Oc1cc(N)n(S(=O)(=O)c2ccccc2)n1,"25.1 µM [falling, single point]",–
CCN(CC)C(=O)CSc1nc2ccc(NC(=O)CSc3nnc(COc4ccccc4C)n3C)cc2s1,"35.5 µM [falling, single point]",–
CCc1ccc(S(=O)(=O)/N=C2\C=C(Nc3cccc(C(=O)O)c3)C(=O)c3ccccc32)cc1,"5.62 µM [falling, partial curve]",–
COc1cc2c(cc1OC)C(CC#N)=NC(C)(C)C2,–,"2.06 µM [falling, full curve]"
COc1ccc(C(=O)NC(CC(=O)O)c2cc([N+](=O)[O-])ccc2Cl)c(SC)c1 (stereo not given),"35.5 µM [falling, single point]","17.8 µM [rising, partial curve, poor fit]"
Cc1ccccc1OCC(=O)NCC1CCCO1 (stereo not given),"6.51 µM [rising, partial curve, poor fit]",–
CC1C/C(=C/c2cccn2C)C(=O)/C(=C/c2cccn2C)C1 (stereo not given),"20.6 µM [falling, partial curve, poor fit]",–
CN(C)/C=C/C(=O)c1ccc(-c2ccc(Cl)cc2Cl)o1,"22.4 µM [falling, partial curve, poor fit]",–
CC(=O)OCC(=O)Nc1ccc([N+](=O)[O-])cc1Cl,"17.8 µM [rising, single point]",–
O=C(Nc1cccc(-c2nnc(-c3ccccc3)o2)c1)c1ccco1,"6.31 µM [rising, full curve, poor fit]",–
CCN(CC)C(=O)c1sc2c(c1C)c(=O)n(-c1ccc(OC)cc1OC)c(=O)n2CC(=O)c1ccc(Cl)cc1,"35.5 µM [rising, single point]",–
O=C(CSc1nc2ncccc2[nH]1)Nc1ccc2c(c1)OCCO2,"23.1 µM [falling, single point]",–
COc1ccc(CNC(=O)C2CCN(S(=O)(=O)N3CCC4(CC3)OCCO4)CC2)c(OC)c1,"23.1 µM [rising, single point]",–
Cc1ccc(Nc2nc(N)c([N+](=O)[O-])c(NCc3ccccc3)n2)cc1,"11.2 µM [rising, partial curve, poor fit]",–
COc1cccc(/C(C)=N/Nc2ncc(Cl)cc2Cl)c1,–,"23.1 µM [falling, single point]"
COc1ccc(C(=O)Nc2ccccc2C(=O)N/N=C/c2ccncc2)cc1OC,"1.58 µM [falling, full curve]","14.1 µM [rising, single point]"
COc1ccc2nc3cccc(OC)c3nc2c1,"5.62 µM [falling, full curve, poor fit]",–
COc1cc(NS(=O)(=O)c2ccc(OC)c(C)c2C)c(OC)cc1Cl,"1.46 µM [falling, partial curve, poor fit]",–
O=C(C(=O)N1CCN(Cc2ccc3c(c2)OCO3)CC1)c1c[nH]c2ccccc12,"8.91 µM [falling, partial curve, poor fit]",–
COc1ccc(NC(=O)CN2CCc3ccccc3C2)cc1OC,"11.2 µM [rising, partial curve]",–
O=C(NCCOc1ccc(Cl)cc1)c1ccc2c(c1)OCCO2,"1.64 µM [falling, partial curve, poor fit]",–

SMILES,AC50 [1],AC50 [2]
Cn1ncc2c(N3CCC(Cc4ccccc4)CC3)ncnc21,"35.5 µM [falling, single point]",–
COc1cccc(C2CC(c3ccccc3Cl)n3ncnc3N2)c1 (stereo not given),"0.184 µM [falling, full curve, poor fit]",–
O=c1ccc(/C=C/c2ccccc2)nn1Cc1ccccc1Cl,"3.26 µM [rising, partial curve, poor fit]",–
COCCNC(=O)C(c1ccc(C)cc1)N(CCOC)C(=O)CCC(=O)Nc1ccccn1 (stereo not given),"0.501 µM [rising, full curve, poor fit]",–
COc1ccc(CNC(=O)CCN2C(=O)c3ccccc3C2=O)cc1,"0.562 µM [falling, full curve, poor fit]",–
Cn1c(=N)n(CC(O)c2cccc3ccccc23)c2ccccc21 (stereo not given),"12.6 µM [falling, single point]",–
N#Cc1nc(-c2ccccc2F)oc1N1CCCCC1,"4.47 µM [rising, full curve, poor fit]",–
S=c1[nH]cc(-c2ccc(Cl)cc2)n1Cc1ccccc1,"1.26 µM [falling, full curve]",–
COc1ccc(C(=O)Nc2ccc(Cl)cc2C(=O)NCCN2CCOCC2)cc1,"35.5 µM [falling, single point]",–
COc1ccccc1C(C[N+](=O)[O-])c1c[nH]c2ccccc12 (stereo not given),"12.6 µM [falling, single point]",–
COc1ccccc1CO/N=C/NC(=O)c1c(OC)ccnc1Oc1ccc(F)cc1,"23.1 µM [falling, single point]",–
N#C/C(=N\Nc1cccc2ccccc12)c1nnc2n1CCCCC2,"16.4 µM [rising, single point]",–
COc1ccc(Br)cc1CN(C)C(=O)c1ccc2c(c1)NC(=O)C(C)S2 (stereo not given),"35.5 µM [falling, single point]",–
Cc1ccc(C(=O)Nc2ccccc2C(=O)N2CCOCC2)cc1[N+](=O)[O-],"25.9 µM [falling, single point]",–
CCOCC(=O)Nc1cc(Cl)c(OC)cc1OC,"12.6 µM [rising, partial curve]",–
COc1ccc(CN(C)C(=O)c2ccc3ccccc3n2)cc1F,–,"28.2 µM [falling, single point]"
O=C(COc1ccccc1)Nc1nnc(-c2ccc(F)cc2)o1,"35.5 µM [falling, partial curve, poor fit]",–
COc1ccc(NC(=O)CCC(=O)Nc2nnc(C3CCCCC3)s2)cc1,"0.562 µM [rising, full curve, poor fit]",–
CC(C)Cc1cc(C(=O)NCc2ccco2)no1,"22.4 µM [falling, single point]",–
COc1ccc(-c2[nH]c(-c3cccc(OC)c3)nc2SCC(=O)NC2CCCC2)cc1,"18.4 µM [falling, single point]",–
